In US8772200B2, “Nitrogen-containing heterocyclic compound and agricultural fungicide” (Nippon Soda Co., Ltd., priority 2010, dated 2014):
Some entries share one result that the patent states for a list of compounds. At least one structure is not confirmed: it was looked up by name or label, or the drawing left a doubt.

Experiments:
[1] = system: apple scab bacteria (Venturia inaqualis); assay: Control test of apple scab; type: in vivo; conditions: emulsion, active ingredient 100 ppm, sprayed on apple seedlings before inoculation; held 2 weeks at 20° C.
[2] = system: cucumber gray mold bacteria (Botrytis cinerea); assay: Control test of cucumber gray mold; conditions: emulsion, active ingredient 100 ppm, sprayed on cucumber seedlings before inoculation; held 4 days at 20° C.

CC(C)C(C)(O)c1c(F)cccc1Oc1cnc2c(F)cccc2c1 (stereo not shown) [compound 80]
protective value [1]: at least 75% | protective value [2]: at least 75%

CC(C)(C)C(=O)c1c(F)cccc1Oc1cnc2c(F)cccc2c1 [compound 12]
protective value [1]: at least 75% | protective value [2]: at least 75%

COC(OC)c1c(Cl)cccc1Cc1cnc2c(F)cccc2c1 [compound 328]
protective value [1]: at least 75% | protective value [2]: at least 75%

CC(=O)C(C)(C)c1c(F)cccc1Oc1cnc2ccccc2c1 [compound 265]
protective value [1]: at least 75% | protective value [2]: at least 75%

O=Cc1c(Br)cccc1Oc1cnc2c(F)cccc2c1 [compound 414]
protective value [1]: at least 75% | protective value [2]: at least 75%

Cc1nc2c(F)ccc(F)c2cc1Oc1cccc(F)c1C(C)(C)O [compound 117]
protective value [1]: at least 75% | protective value [2]: at least 75%

CC(C)(O)c1c(F)cccc1Oc1cnc2sccc2c1 [b-12]
protective value [1]: at least 75% | protective value [2]: at least 75%

CN(C)C(=O)c1c(Br)cccc1Oc1cnc2ccccc2c1 [compound 22]
protective value [1]: at least 75% | protective value [2]: at least 75%

CC(=O)C(C)(C)C(C)(C)c1ccccc1Oc1cc2ccccc2nc1C [compound 257]
protective value [1]: at least 75% | protective value [2]: at least 75%

CC(=O)C(=O)c1c(Cl)cccc1Oc1cc2cccc(F)c2nc1C [compound 393]
protective value [1]: at least 75% | protective value [2]: at least 75%

COC(Cc1ccccc1)c1c(Cl)cccc1Oc1cnc2c(F)cccc2c1 (stereo not shown) [compound 175]
protective value [1]: at least 75% | protective value [2]: at least 75%

CC(C)(C=NO)C(C)(C)c1ccccc1Oc1cnc2ccccc2c1 [compound 231]
protective value [1]: at least 75% | protective value [2]: at least 75%

CC(C)(O)c1c(F)cccc1C(=O)c1cnc2c(F)cccc2c1 [compound 333]
protective value [1]: at least 75% | protective value [2]: at least 75%

CC(C)(C)OC(=O)NC1(c2c(F)cccc2Oc2cnc3c(F)cccc3c2)CC1 [compound 434]
protective value [1]: at least 75% | protective value [2]: at least 75%

CC(C)(C=O)c1ccccc1Oc1cnc2ccccc2c1 [compound 234]
protective value [1]: at least 75% | protective value [2]: at least 75%

CC1(c2c(F)cccc2Oc2cnc3c(F)cccc3c2)CO1 (stereo not shown) [compound 308]
protective value [1]: at least 75% | protective value [2]: at least 75%

CN(C)C(=O)C(C)(C)c1ccccc1Oc1cnc2c(F)cccc2c1 [compound 274]
protective value [1]: at least 75% | protective value [2]: at least 75%

CON=C(C)C(=O)c1c(Cl)cccc1Oc1cnc2c(F)cccc2c1 [compound 399]
protective value [1]: at least 75% | protective value [2]: at least 75%

CC(=O)c1c(Cl)cccc1Oc1cnc2c(F)cccc2c1 [compound 353]
protective value [1]: at least 75% | protective value [2]: at least 75%

CC(O)(c1c(F)cccc1Oc1cnc2c(F)cccc2c1)C1CC1 (stereo not shown) [compound 86]
protective value [1]: at least 75% | protective value [2]: at least 75%

CC(C)(C)C(O)c1c(Cl)cccc1Oc1cnc2c(F)cccc2c1 (stereo not shown) [compound 145]
protective value [1]: at least 75% | protective value [2]: at least 75%

Cc1nc2c(F)c(F)ccc2cc1Oc1cccc(F)c1C(C)(C)O [compound 125]
protective value [1]: at least 75% | protective value [2]: at least 75%

COC(C)(C)c1c(F)cccc1Oc1cc2ccc(F)cc2nc1C [compound 441]
protective value [1]: at least 75% | protective value [2]: at least 75%

Cc1nc2c(F)cccc2cc1Oc1cccc(F)c1C1(C#N)CC1 [compound 311]
protective value [1]: at least 75% | protective value [2]: at least 75%

Cc1nc2c(F)cccc2cc1Oc1cccnc1C(C)(O)C(C)(C)C (stereo not shown) [a-10]
protective value [1]: at least 75% | protective value [2]: at least 75%

CC(C)(O)c1c(Cl)cccc1Oc1cnc2c(F)cccc2c1 [compound 95]
protective value [1]: at least 75% | protective value [2]: at least 75%

CC1(C)CCc2cccc(Oc3cnc4c(F)cccc4c3)c21 [compound 19]
protective value [1]: at least 75% | protective value [2]: at least 75%

CC(=O)C(C)(C)c1c(F)cccc1Oc1cnc2c(F)cccc2c1 [compound 262]
protective value [1]: at least 75% | protective value [2]: at least 75%

CC(C)(C)C(C)(O)c1ccccc1Oc1cnc2ccccc2c1 (stereo not shown) [compound 31]
protective value [1]: at least 75% | protective value [2]: at least 75%

CC(C)(C=O)C(C)(C)c1c(F)cccc1Oc1cnc2c(F)cccc2c1 [compound 239]
protective value [1]: at least 75% | protective value [2]: at least 75%

CC(C)(CO)C(C)(C)c1ccccc1Oc1cnc2ccccc2c1 [compound 225]
protective value [1]: at least 75% | protective value [2]: at least 75%

CCON=C(C)c1c(F)cccc1Oc1cc2ccc(F)cc2nc1C [compound 319]
protective value [1]: at least 75% | protective value [2]: at least 75%
